According to patent publication US20180155434A1 (UNIVERSITY OF TOYAMA, published 2018):
These are yes or no findings as the source states them, for the method shown. Some entries that bind do so weakly or less than the wild type.

Legend:
[1] = target: T1, mouse IL-5Rα on Y16 cells (mouse, UniProt P21183 18-415); assay: flow cytometry on Y16 cells
T1 construct: whole, on cells; also called IL-5Rα chain; mouse IL-5Rα-expressing cell Y16
T1 sequence (looked up): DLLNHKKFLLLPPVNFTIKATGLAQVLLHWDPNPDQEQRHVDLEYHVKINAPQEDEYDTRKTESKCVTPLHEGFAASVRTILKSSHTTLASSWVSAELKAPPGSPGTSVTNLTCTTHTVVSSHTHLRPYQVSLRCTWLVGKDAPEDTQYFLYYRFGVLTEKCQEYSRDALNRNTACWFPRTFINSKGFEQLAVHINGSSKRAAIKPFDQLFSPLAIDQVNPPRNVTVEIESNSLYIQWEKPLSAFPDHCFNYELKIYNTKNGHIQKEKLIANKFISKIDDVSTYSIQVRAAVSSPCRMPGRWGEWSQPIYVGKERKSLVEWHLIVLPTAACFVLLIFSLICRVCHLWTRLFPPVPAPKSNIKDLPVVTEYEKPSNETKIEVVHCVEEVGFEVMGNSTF

[2] = target: T1, mouse IL-5Rα on Y16 cells; assay: flow cytometry on Y16 cells expressing mouse IL-5R, detection with goat F(ab')2 anti-human IgG PE, Geomean
Description: The chimeric antibodies prepared in Example 8 were evaluated for their antigen binding activity using a mouse-derived cell line Y16 expressing IL-5R. The Y16 cells were washed with SM (staining medium containing 2% FCS, 0.05% NaN₃, and 1 mM EDTA in PBS). Then, Mouse BD Fc Block (manufactured by Becton, Dickinson and Company) was added thereto at a concentration of 5 μg/mL, and the mixture was left standing at 4° C. for 30 min. The cells were inoculated at a cell number of 1×10⁵ cells/well to a 96-well U-bottom plate, and each chimeric antibody adjusted to a final concentration of 10000, 2500, 625, 156, 39, 10, 2.4, or 0.6 ng/mL was added thereto, followed by reaction at 4° C. for 60 min. The rat/human chimeric control antibodies used were rtDNP-1 hIgG1 (DF) antibody (KM8808) and rtDNP-1 hIgG1 (N297A) antibody (KM6161). The nucleotide sequences and amino acid sequences of the variable regions of each isotype control antibody are shown in SEQ ID NOs: 29 to 34. […] Fluorescence intensity was measured by FCM (flow cytometer FACS Canto II (manufactured by Becton, Dickinson and Company)). The data was analyzed using FlowJo 7.65 (manufactured by Tomy Digital Biology Co., Ltd.) to calculate a Geomean value at each concentration.

B1: H7 hIgG1 (DF) (H7-1) (antibody, V domains shown)
VH: EVQLQQSGAELGKPGTSVKLSCKVSGYNIKNTYIHWVNQRPGKGLEWIGRIDPANGNPIYAEKFKNKATLTADTSSNTAYMQLSQLKSDDTAIYFCAMHRGHSMGPGPYVMDAWGQGASVTVSS
VL: DIQMTQSPASLSASLGETVTIECRTSEDIYNGLAWYQQKPGKSPQLLIYNANSLHTGVPSRFSGSGSGTQYSLKINSLQSEDVASYCCQQYSNYPFTFGSGTKLEIK
notes: also called core fucose-deficient H7 chimeric antibody; Potelligent-type H7 chimeric antibody
[1]
  binding: binds
[2]
  binding: binds

B2: H7 hIgG1 (N297A) (H7-3) (antibody, V domains shown)
VH: B1 VH
VL: B1 VL
notes: Rat H7 variable regions on a human IgG1 constant region with N297A (EU index), so it lacks the N-linked sugar chain; Human kappa light chain constant region; also called N-linked sugar chain-deficient H7 chimeric antibody
[1]
  binding: binds
[2]
  binding: binds
